Experimental data taken from patent publication US20070099891A1, “Medicinal compositions and combinations” (priority 2003, published 2007).

Assays:
[1] = tested on: rabbit with endogenous hyperlipemia caused by a casein diet load; test: Blood cholesterol lowering action in endogenous hyperlipemia rabbit (casein diet); assay type: in vivo, New Zealand White rabbit; conditions: for plasma LDL cholesterol / plasma total cholesterol: mean ± standard error
Method: 8 weeks old male New Zealand White rabbit were bred for 12 days with ad libitum water and feeding conditions (rabbit·guinea pig breeding feed RC4, Oriental Yeast Co., Ltd., Tokyo, Japan). Thereafter, the diet was replaced with the casein diet containing 27% casein (Oriental Yeast Co., Ltd., Tokyo, Japan), and then the restricted feeding to the 100 g per 3 kg weight was performed for one week. At this point, the blood was collected via auricular veins and the plasma total cholesterol amounts was measured and then these rabbits were divided such that the mean of the weight and the plasma total cholesterol were equal approximately. Thereafter, continuing the restricted feeding of casein diet, the each agent was administered in the following conditions for 3 weeks: compound A (1 mg/kg), atorvastatin (1 and 3 mg/kg), a combination of compound A (1 mg/kg) and atorvastatin (1 mg/kg), and a combination of compound A (1 mg/kg) and atorvastatin (3 mg/kg). Each agent was dissolved in propylene glycol containing 0.5% polyoxyethylenesorbitan monooleate (Tween 80) and then these were administered orally. On the other hand, for control group, the solvent (propylene glycol comprising 0.5% Tween 80) was administered orally. At one day after final administration, the blood was collected and plasma total cholesterol was measured and also the lipoprotein was fractioned according to the differential ultracentrifugation method (Nobuhiro, Yamada, Yasushi Sato edit.: Study strategy of Arteriosclerotic+Hyperlipemia, 63-69, 1996, Shujunsha Co. Ltd.), and then the amounts of cholesterol in the fraction of LDL were measured. The amount of total cholesterol in plasma and the amount of cholesterol in LDL fraction were determined by using an automatic biochemical analyzer (Biochemical Analyzer CHEM 1, Bayer Corporation, NY, USA).

HepG2 cell = test: LDL binding, uptake and degradation activity in cultured human hepatic cell line HepG2 ([125I]LDL); assay type: cell-based; conditions: for Uptake Amounts: mean ± standard error, 6 experiments
Method: The cultured human hepatic cell line HepG2 cell was purchased from the Dainippon Pharmaceuticals Co. Ltd. (Osaka, Japan). The determinations of LDL binding, uptake and degradation activity were performed according to a prior report (Method in Enzymology, 98, 241-255, 1983). Cells were seeded in a 24 well plate and were incubated in the Dulbecco's modified Eagle/F-12 (DMEM/F-12) medium containing 10% fetal bovine serum and antibiotics at 37° C. for two days. After washing the cells, a DMEM/F-12 medium containing 10% lipoprotein-removed serum, the test substrate and the antibiotics was added and the cells were incubated at 37° C. for 19 hours. After adding [^125I]LDL, the cells were incubated at 37° C. for another 5 hours. The culture supernatant was collected and trichloroacetic acid was added thereto, and then it was statically kept for 30 minutes or more at 4° C. After centrifuging (700×g, 4° C., 15 min.), the supernatant was separated and sodium iodide was added thereto, and further hydrogen peroxide was added. After treating the mixture at room temperature for 5 min., chloroform was added and the mixture was stirred. After centrifuging (700×g, 4° C., 5 min.), the radioactivity in the supernatant was measured by a gamma counter, and then the data thus obtained was evaluated as an amount of degradation of LDL. Separately, after washing the cells thoroughly, a dissociation buffer (50 mM NaCl, 10 mM 2-[4-(2-hydroxyethyl)-1-piperadinyl]ethane sulfonic acid (HEPES, pH 7.4), 10 mg/mL heparin) was added and then the cells were statically kept at 4° C. for 60 min. or more. […] Furthermore, 1N sodium hydroxide was added to the remaining cells and the mixture was reacted for more than 10 min. to dissolve the cells. […] On the other hand, the amounts of non-specific degradation, binding and uptake were evaluated by coexisting an excess of non-labeled LDL on addition of [^125I] LDL, while the amounts of specific degradation, binding and uptake were obtained by subtracting the amounts of non-specific degradation, binding and uptake from the total amounts of degradation, binding and uptake and further calibrating with the amounts of protein. For test substrate, N-[1-butyl-4-[3-[3-(hydroxy)propoxy]phenyl]-1,2-dihydro-2-oxo-1,8-naphthyridine-3-yl]-N′-(2,6-diisopropyl-4-aminophenyl)urea (hereinafter, referred to as compound A) and atorvastatin were used.

In the case of `CC(C)c1c(C(=O)Nc2ccccc2)c(-c2ccccc2)c(-c2ccc(F)cc2)n1CC[C@@H](O)C[C@@H](O)CC(=O)O` [Atorvastatin, atorvastatin], the “plasma LDL cholesterol” value ([1]; 1 mg/kg orally for 3 weeks) was 62 ± 18 mg/dL, the plasma total cholesterol ([1]; 1 mg/kg orally for 3 weeks) was 115 ± 18 mg/dL and the “plasma total cholesterol lowering action and plasma LDL cholesterol lowering action (in words)” value ([1]; 1 mg/kg, compared to control) was “did not show significant effects”. The “plasma LDL cholesterol” value ([1]; 3 mg/kg orally for 3 weeks) was 59 ± 16 mg/dL, the plasma total cholesterol ([1]; 3 mg/kg orally for 3 weeks) was 122 ± 15 mg/dL and the “amounts of binding, uptake and degradation of LDL (in words)” value (HepG2 cell; atorvastatin 0.1 to 10 μM) was “increased”. The “Uptake Amounts” value (HepG2 cell; single agent 0.1 μM) was 1043.4 ± 16.7 ng/mg protein, the “Uptake Amounts” value (HepG2 cell; single agent 1 μM) was 1033.4 ± 52.8 ng/mg protein and the “Uptake Amounts” value (HepG2 cell; single agent 10 μM) was 1145.0 ± 50.9 ng/mg protein.
